Among all 360,000 compounds or so, about 9,100 (2.5%) were called active. Inconclusive results, whose numbers are uncertain, are shown with a selection of clear calls. Rule as the data show it: active = max response below about -50%; inconclusive = no clear call, values can overlap the other calls; inactive = above that.
These compounds were tested against D(3) dopamine receptor (Homo sapiens) (UniProt P35462) (assay: qHTS of D3 Dopamine Receptor Antagonist: qHTS). Conditions: D3R cells, DiscoveRx beta-arrestin luminescence, antagonist mode; hits give low values.
Procedure, shortened: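 Cells expressing the human receptor were seeded at 1500 cells/well, incubated overnight at 37 degrees C in 5% CO2, then exposed to library compounds with dopamine controls for 90 minutes at 37 degrees C before luminescent detection.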
% is scaled to controls: 0 for no effect and ±100 for the full control effect.

Amino acid sequences for entries named in this document (tags omitted).
UniProt P35462, whole entry, looked up: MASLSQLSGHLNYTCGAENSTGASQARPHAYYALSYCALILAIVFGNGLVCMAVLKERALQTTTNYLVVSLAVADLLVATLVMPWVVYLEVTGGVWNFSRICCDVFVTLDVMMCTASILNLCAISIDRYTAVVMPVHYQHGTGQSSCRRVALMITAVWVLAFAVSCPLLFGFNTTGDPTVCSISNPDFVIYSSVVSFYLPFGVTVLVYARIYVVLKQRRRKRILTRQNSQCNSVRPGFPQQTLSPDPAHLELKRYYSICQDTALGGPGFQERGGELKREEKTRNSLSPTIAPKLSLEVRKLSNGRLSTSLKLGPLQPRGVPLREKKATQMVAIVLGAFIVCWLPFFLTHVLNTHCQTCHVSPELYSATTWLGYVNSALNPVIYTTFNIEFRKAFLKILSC

SMILES | max response, negative = inhibition
COc1ccc(/C=C/c2ccncc2)c2ccccc12 | inconclusive: -33.8%
Cc1ccc(-c2nc3ccccc3n3nnnc23)cc1 | inactive: 7.7%
C=CCOc1ccc(Br)cc1CNC(C)(C)CO | inactive: 0.344%
CC(C)=CCC[C@](C)(O[C@@H]1O[C@H](CO[C@@H]2OC[C@@H](O)[C@H](O)[C@H]2O)[C@@H](O)[C@H](O)[C@H]1O)C1CC[C@]2(C)C1[C@H](O)CC1[C@@]3(C)CC[C@H](O[C@@H]4O[C@H](CO)[C@@H](O)[C@H](O)[C@H]4O)C(C)(C)C3CC[C@]12C (some centres not stated) | inconclusive: -30.3%
Cc1c(N/C=C/C(=O)c2cccs2)c(=O)n(-c2ccccc2)n1C | inconclusive: -40.7%
CC(C)(C)NC(=O)C1c2ccccc2OCC(=O)N1CCCN1CCOCC1 (configuration not stated) | inconclusive: -32.5%
COc1ccccc1C(=O)Nc1ccc2c(c1)nc(CCNC(C)=O)n2C | inconclusive: -31.2%
CCOc1ccc(OCC(O)CN2CCc3ccccc3C2)cc1 (configuration not stated) | active: -98%
COc1ccc(-n2c(=S)[nH]c3cc(C(=O)Nc4cc(C(N)=O)ccc4OC)ccc3c2=O)c(OC)c1 | inconclusive: -31%
Fc1ccc(NC(=S)NC2CCN(Cc3ccccc3)CC2)cc1 | active: -54.5%
COc1cccc2cc(C(=O)NCCN3CCOCC3)c(=O)oc12 | inactive: 1.72%
CCc1nc2c(OCc3ccccc3C(=O)OC)cccn2c1N(C)C(=O)CC(C)C | inactive: 0%
CC(C)(C)c1ccc(OCc2cnc(Cl)s2)cc1 | inconclusive: -31%
COc1ccc2[nH]c(=O)c(CN(CCO)C(=O)NCc3ccccc3)cc2c1 | inactive: -9.26%
O=C(c1ccc(F)cc1)C1CCN(Cc2ccccc2F)CC1 | active: -112%
Cc1ccc(O)c(N=CC2=C(O)c3ccccc3C2=O)c1 | active: -53.6%
Cc1ccc(C)c(C(=O)C(C)OC(=O)c2cccn2C)c1 (configuration not stated) | active: -50.5%
CCN(CC)CCN(C(=O)c1ccc2c(c1)CCCC2)c1nc2c(OC)cccc2s1 | active: -103%
COc1cccc(C(=O)NCCS(=O)(=O)NCCCc2ccccc2)c1 | inconclusive: -36.9%

Structural class, those above containing a tert-butyl group
SMILES | max response, negative = inhibition
CC(C)(C)NC(=O)C1c2ccccc2OCC(=O)N1CCCN1CCOCC1 (configuration not stated) | inconclusive: -32.5%
CC(C)(C)c1ccc(OCc2cnc(Cl)s2)cc1 | inconclusive: -31%

(more compounds)

SMILES | max response, negative = inhibition
CCN(CC)Cc1ccc(NC(=O)c2sc3cc(Cl)ccc3c2Cl)cc1 | inconclusive: -31.2%
COc1ccc(OC)c(NC(=O)CN2CCC(C(=O)c3ccc(C)cc3)CC2)c1 | inconclusive: -44.4%
CC(=O)Nc1ccccc1C(=O)C(=O)O | inconclusive: -36.3%
Cc1cc([N+](=O)[O-])nn1Cc1noc(C(=O)NCCCn2ccnc2)n1 | inactive: 6.94%
COc1cc2[nH]c(=O)n(CCC(=O)NC3CCCC3)c(=O)c2cc1OC | inconclusive: -37.6%
CCOC(=O)c1ccc(NC(=S)NCC(O)c2ccccc2)cc1 (configuration not stated) | inactive: -2.83%
CCOC(=O)C1CCCN(c2c(Nc3ccc(OCC)cc3)c(=O)c2=O)C1 (configuration not stated) | inconclusive: -47.2%
O=C1N(CC(=O)N2CCc3ccccc32)CCN1Cc1ccccc1Cl | inconclusive: -42.4%
O=S(=O)(Nc1cccc2cccnc12)c1ccccc1 | active: -70.6%
N=c1sccn1CC(=O)N1CCc2ccccc21 | active: -65.2%
CCCCNC(=O)Cn1nnc(-c2ccccc2)c1COc1ccc(C(C)=O)cc1 | inactive: -10%
CC(C)CN1C(=O)C(=Nc2cccnc2)c2ccccc21 | inconclusive: -37.9%
O=c1oc(-c2cccs2)nc2c1cnn2-c1ccccc1 | active: -56.2%
O=[N+]([O-])c1ccc(N2CCN(S(=O)(=O)c3ccccc3)CC2)cc1NCC1CCCO1 (configuration not stated) | inactive: -4.47%
CC(Sc1c[nH]c2ccccc12)C(=O)O (configuration not stated) | inactive: 5.79%
COc1cc(-c2coc3c(C(=O)NC4CCCCC4)cccc23)ccc1O | inactive: 10.1%
O=C(Nc1nccs1)C1Cc2ccccc2CN1S(=O)(=O)c1ccc(F)cc1 (configuration not stated) | inactive: 1.78%
C=C(CN(C)C)C(=O)c1cc(C)ccc1C | active: -87.6%
CC1(C)Cc2c(ccc3ccccc23)C(NNC(=O)c2cccnc2)=N1 | inconclusive: -35.8%

SMILES | max response, negative = inhibition
Cc1nc2sccn2c(=O)c1CCN1CCC(=C(c2ccc(F)cc2)c2ccc(F)cc2)CC1 | active: -93.2%
Cc1cccc(C(O)c2ncc(-c3ccccc3F)[nH]2)c1C (configuration not stated) | inconclusive: -41.5%
O=C1NC[C@H](Cc2ccccc2)N(CC2CCN(CCCCc3ccccc3)CC2)C1=O | active: -50.5%
O=C(NCc1ccc2c(c1)OCO2)c1nc(S(=O)(=O)Cc2ccccc2F)ncc1Cl | active: -91.5%
Cc1cnc(C(=O)Nc2c(-c3ccccc3)[nH][nH]c2=O)cn1 | inconclusive: -42.6%
COc1cc(NC(=O)Cn2ncc(Cl)c(Cl)c2=O)c(C)cc1[N+](=O)[O-] | inconclusive: -35.3%
Nc1nnc(SCC(=O)Nc2ccc3nc(SCC(=O)Nc4ccccc4)sc3c2)s1 | inactive: 0.758%
CC1=NN(Cc2ccccc2)C(=O)C1 | inactive: 18.1%
CCOC(=O)c1cc(C#N)c(N2CCCC2)nc1-c1ccccc1 | inactive: 0%
COc1ccc(CNC(=O)c2ccc(-n3ccnc3)c3ccoc23)cc1OC | active: -76.3%
CC(=O)c1ccc(Oc2cc(C)nc(NCc3ccccc3)n2)cc1 | inactive: 20.9%
Cn1ncc([N+](=O)[O-])c1C(=O)Nc1ccc(Cl)cc1 | inactive: -7.72%
Cc1ccc(OCCNC(=O)/C=C/c2ccc([N+](=O)[O-])cc2)cc1C | inactive: -12.1%
Cn1c(=O)oc2cc(S(=O)(=O)N3CCC(C(=O)NCc4ccc(F)cc4)CC3)ccc21 | inconclusive: -33%
Cc1nn(C)cc1C(=O)Nc1c(C)nn(Cc2ccccc2Cl)c1C | inconclusive: -34.4%
S=c1[nH]nc(COc2ccc(Cl)cc2)n1C1CCCCC1 | inactive: -9.95%
Nc1cc(=O)[nH]c(=S)n1-c1ccccc1 | inconclusive: -36.8%
Cc1[nH]n(-c2ccccc2)c(=O)c1N=Nc1nccs1 | inconclusive: -37.4%
CC1=C(C(=O)OC2CCCCCC2)C(c2ccc(C)o2)C2=C(CCCC2=O)N1 (configuration not stated) | inactive: -16.8%
